Data published in PMC11450232.
Residue numbers refer to the chain shown, from its start. These are yes or no findings as the source states them, for the method shown. Binding seen in cells or lysates may run through a third protein. Some entries that bind do so weakly or less than the wild type. Tags and fused reporters may be left off the sequences shown.

What was measured:
[1] = biological target: T1, HA-tagged IRF3 (interferon regulatory factor 3), wild type (human) (UniProt Q14653); assay: co-IP; cells transfected with HA-IRF3 (wild type or mutant), with or without PBLD (1.2 or 2.4 ug), infected with BPIV3 for 24 h; non-denaturing lysis buffer; lysate incubated with HA antibody 12 h at 4 °C, then protein A/G resin 4 h; endogenous Puma and Noxa detected by western blot
T1 sequence: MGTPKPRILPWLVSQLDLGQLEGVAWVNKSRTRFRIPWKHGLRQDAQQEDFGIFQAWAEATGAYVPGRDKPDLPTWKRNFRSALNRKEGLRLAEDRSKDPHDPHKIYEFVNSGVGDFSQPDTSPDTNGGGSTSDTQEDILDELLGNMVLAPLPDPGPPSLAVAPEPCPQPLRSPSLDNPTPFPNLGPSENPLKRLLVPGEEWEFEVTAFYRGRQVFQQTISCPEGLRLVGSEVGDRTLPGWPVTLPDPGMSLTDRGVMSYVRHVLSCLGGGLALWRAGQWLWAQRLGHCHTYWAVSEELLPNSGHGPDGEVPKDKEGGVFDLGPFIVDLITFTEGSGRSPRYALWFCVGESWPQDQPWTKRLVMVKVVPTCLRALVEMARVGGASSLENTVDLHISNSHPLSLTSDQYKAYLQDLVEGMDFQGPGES

[2] = biological target: T2, HA-IRF3(K313/315N) (human) (UniProt Q14653); assay: as above
T2 sequence: T1 sequence with K313N, K315N

B1: p53 upregulated modulator of apoptosis (Puma) (protein, UniProt Q9BXH1 1-193)
chain: MARARQEGSSPEPVEGLARDGPRPFPLGRLVPSAVSCGLCEPGLAAAPAAPTLLPAAYLCAPTAPPAVTAALGGSRWPGGPRSRPRGPRPDGPQPSLSLAEQHLESPVPSAPGALAGGPTQAAPGVRGEEEQWAREIGAQLRRMADDLNAQYERRRQEEQQRHRPSPWRVLYNLIMGLLPLPRGHRAPEMEPN
binding [1]: binds
binding [2]: binds
